PubChem BioAssay AID720505 | Drosophila RNAi Screening Center – 2013
Purpose: 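Genes needed for store-operated calcium entry in fly cells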 (primary screen). System: Drosophila S2R+ cells. Knock-down reagent: long dsRNA against Drosophila genes. Conditions: thapsigargin (2 µM) in calcium-free buffer to empty internal stores, then 2 mM calcium added back. Detection: 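Stores emptied by 2 µM thapsigargin without calcium, then 2 mM calcium re-added; fluo-4 fluorescence followed by FLIPR in 384-well plates, per-well averaged endpoint, raw; two screen passes, some wells retested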. Reading the numbers: calcium signal: higher = more calcium entry after store depletion. Call rule: 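Knock-downs counted as hits when calcium entry dropped relative to STIM1 positive and Rho1 negative controls present on each plate; roughly 1500 genes called, with reductions of differing size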. Meaning of the calls: active = called as lowering calcium entry; inactive = not called.
The screen tested about 20,000 reagents; shown is a random part of those with a known target gene and a result. In the full data, about 2,100 (10%) were called active. 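Raw plate signals without normalisation; calls rest on control-based scores that were not deposited; replicate 2 separates called from uncalled poorly.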 Reagents against one gene are numbered here. A plus sign joins genes that one reagent is predicted to hit. No sequences are given here. Not stated in the record: the amount of reagent, the time to read-out.

no.	gene knocked down	reagent no.	calcium signal, replicate 1	calcium signal, replicate 2	call
1	CG13239	1	83.3	159	inactive
2	Septin5 (Septin 5)	1	157	134	inactive
3	CG11356	1	112	111	inactive
4	CG5334	1	89.5	102	inactive
5	subdued	1	111	203	inactive
6	D19A	1	84.9	105	inactive
7	sw + Sdic4 + Sdic3 + 2 more	1	145	92.9	inactive
8	CG8230	1	64.6	120	active
9	CG3107	1	120	112	inactive
10	Idgf2 (Imaginal disc growth factor 2)	1	105	102	inactive
11	CG3556	1	123	152	inactive
12	CG14777	1	98.7	113	inactive
13	CG31419	1	147	124	inactive
14	CG30192	1	92.4	6139	inactive
15	CG7044	1	138	128	inactive
16	RpL37-2 (Ribosomal protein L37-2)	1	129	230	inactive
17	Peritrophin-15b	1	194	148	inactive
18	CG9393	1	84.9	157	inactive
19	Atg18a (Autophagy-related 18a)	1	121	84.6	inactive
20	CG32176	1	139	162	inactive
21	CG32176	2	89.1	174	inactive
22	NetB (Netrin-B)	1	106	94.3	inactive
23	CG8851	1	126	84.4	inactive
24	Ugt50B3 (UDP-glycosyltransferase family 50 member B3)	1	72.9	91.7	active
25	Ugt50B3 (UDP-glycosyltransferase family 50 member B3)	2	64.7	110	inactive
26	Ugt50B3 (UDP-glycosyltransferase family 50 member B3)	3	160	85.2	inactive
27	CG42676	1	183	108	inactive
28	CG42676	2	110	128	inactive
29	ebo (ellipsoid body open)	1	126	159	inactive
30	CG12535	1	90.7	106	inactive
31	ERp60 (Endoplasmic reticulum p60)	1	151	143	inactive
32	Gr63a (Gustatory receptor 63a)	1	86.5	101	inactive
33	Teh2 (tipE homolog 2)	1	66.4	71.4	active
34	cag	1	123	184	inactive
35	Zmynd10 (Zinc finger MYND-type containing 10)	1	88.8	86.7	inactive
36	CG8372	1	154	252	inactive
37	srl (spargel)	1	104	191	inactive
38	sti (sticky)	1	71.4	75.6	inactive
39	sti (sticky)	2	80.9	104	inactive
40	CG16798	1	186	136	inactive
41	ppk3 (pickpocket 3)	1	164	205	inactive
42	Ir67a (Ionotropic receptor 67a)	1	71.9	117	inactive
43	soti (scotti)	1	121	197	inactive
44	Ate1 (Arginyltransferase 1)	1	99.2	114	inactive
45	Toll-9	1	105	156	inactive
46	CG12164	1	158	86	inactive
47	CG12164	2	134	92.6	inactive
48	Prp4k (Pre-mRNA processing factor 4 kinase)	1	168	134	inactive
49	CG11674	1	84.9	82.9	inactive
50	CG11089 + CG31381	1	294	273	inactive
51	CG13053	1	78.1	110	inactive
52	Ir8a (Ionotropic receptor 8a)	1	86.6	123	inactive
53	Ir8a (Ionotropic receptor 8a)	2	90.5	109	inactive
54	Pex23 (Peroxin 23)	1	165	147	inactive
55	Pex23 (Peroxin 23)	2	71.5	160	inactive
56	Obp47a (Odorant-binding protein 47a)	1	172	127	inactive

Reprinted from the entries so far, 7 entries:
no.	gene knocked down	reagent no.	calcium signal, replicate 1	calcium signal, replicate 2	call
29	ebo (ellipsoid body open)	1	126	159	inactive
30	CG12535	1	90.7	106	inactive
31	ERp60 (Endoplasmic reticulum p60)	1	151	143	inactive
32	Gr63a (Gustatory receptor 63a)	1	86.5	101	inactive
33	Teh2 (tipE homolog 2)	1	66.4	71.4	active
34	cag	1	123	184	inactive
35	Zmynd10 (Zinc finger MYND-type containing 10)	1	88.8	86.7	inactive
